No constants are given. Whether binding was seen depends on the method and setting. In cells and extracts the contact can be indirect. A yes stands for co-enrichment or nearness to the bait. Other partners may have been found.
Target: EGFP-tagged human ATP1A3 fragment consisting of an intracellular loop (ICL), two transmembrane (T) domains and an extracellular loop (E) (ICL-TET-GFP) (human) (UniProt P13637)
Assay: affinity purification with mass spectrometry; Lysate of Neuro2a cells stably expressing ICL-TET-GFP (GFP as control); anti-GFP antibody magnetic beads, overnight at 4°C; 0.5% Triton X-100, 150 mM NaCl, 20 mM Tris-HCl pH 7.5, 2 mM EDTA; 18 Coomassie bands cut, in-gel trypsin digestion, LC-MS/MS

- binding: binds
B1: ataxia-related protein ATXN2 (protein, UniProt O70305 1-1285)
chain: MRSSTAAVQRPAAGDPEPRRPAGWAARRSLPRTARRGGRGGAVAYPSAGPPPRGPGAPPRGPRSPPCASDCFGSNGHGASRPGSRRLLGVCGPPRPFVVVLLALAPAATPARACPPGVRASPPRSGVSSSARPAPGCPRPACEPVYGPLTMSLKPQPQPPAPATGRKPGGGLLSSPGAAPASAAVTSASVVPAPAAPVASSSAAAGGGRPGLGRGRNSSKGLPQPTISFDGIYANVRMVHILTSVVGSKCEVQVKNGGIYEGVFKTYSPKCDLVLDAAHEKSTESSSGPKREEIMESVLFKCSDFVVVQFKDTDSSYARRDAFTDSALSAKVNGEHKEKDLEPWDAGELTASEELELENDVSNGWDPNDMFRYNEENYGVVSTYDSSLSSYTVPLERDNSEEFLKREARANQLAEEIESSAQYKARVALENDDRSEEEKYTAVQRNCSDREGHGPNTRDNKYIPPGQRNREVLSWGSGRQSSPRMGQPGPGSMPSRAASHTSDFNPNAGSDQRVVNGGVPWPSPCPSHSSRPPSRYQSGPNSLPPRAATHTRPPSRPPSRPSRPPSHPSAHGSPAPVSTMPKRMSSEGPPRMSPKAQRHPRNHRVSAGRGSMSSGLEFVSHNPPSEAAAPPVARTSPAGGTWSSVVSGVPRLSPKTHRPRSPRQSSIGNSPSGPVLASPQAGIIPAEAVSMPVPAASPTPASPASNRALTPSIEAKDSRLQDQRQNSPAGSKENVKASETSPSFSKADNKGMSPVVSEHRKQIDDLKKFKNDFRLQPSSTSESMDQLLSKNREGEKSRDLIKDKTEASAKDSFIDSSSSSSNCTSGSSKTNSPSISPSMLSNAEHKRGPEVTSQGVQTSSPACKQEKDDREEKKDTTEQVRKSTLNPNAKEFNPRSFSQPKPSTTPTSPRPQAQPSPSMVGHQQPAPVYTQPVCFAPNMMYPVPVSPGVQPLYPIPMTPMPVNQAKTYRAGKVPNMPQQRQDQHHQSTMMHPASAAGPPIVATPPAYSTQYVAYSPQQFPNQPLVQHVPHYQSQHPHVYSPVIQGNARMMAPPAHAQPGLVSSSAAQFGAHEQTHAMYACPKLPYNKETSPSFYFAISTGSLAQQYAHPNAALHPHTPHPQPSATPTGQQQSQHGGSHPAPSPVQHHQHQAAQALHLASPQQQSAIYHAGLAPTPPSMTPASNTQSPQSSFPAAQQTVFTIHPSHVQPAYTTPPHMAHVPQAHVQSGMVPSHPTAHAPMMLMTTQPPGPKAALAQSALQPIPVSTTAHFPYMTHPSVQAHHQQQL

— publication PMC11247502
